Laboratory results from PubChem BioAssay AID1487 (National Center for Advancing Translational Sciences (NCATS), 2009).
The other results are listed elsewhere or left out. These are further read-outs of the screen, such as a control signal, another cell line or another target. No call is given for them. Compounds called inactive in the main read-out are mostly missing here. Potencies come from curve fits of mixed quality, noted in brackets.

Experiment: qHTS Assay for Modulators of Lamin A Splicing
Settings: HeLa LMNA splicing GFP/RFP minigene ratio, 48 h
In short: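 Read-out is the ratio of GFP to DsRed2 object intensity, acquired by 488 nm laser-scanning cytometry on HeLa lamin A-EGFP minigene reporter cells. Compound incubation 48 hrs at 37 °C in Opti-MEM with 2% FBS; DMSO 0.5% final.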

[1] = measured here: RFP viability control channel
[2] = measured here: GFP splicing reporter channel

Compound	AC50 [1]	AC50 [2]
COc1cc(NC(=O)C23CC4CC(C2)CC(n2nnc(C)n2)(C4)C3)c(OC)cc1Cl	12.6 µM [rising, partial curve]	
CC(C)C1=CC2=CC[C@@H]3[C@](C)(CO)CCC[C@]3(C)C2CC1 (stereo partly drawn)	31.6 µM [rising, single point]	
O=C(O)CSCc1cnn(-c2ccccc2)c1-n1cccc1	11.2 µM [rising, partial curve]	7.08 µM [rising, partial curve]
COc1ccc(C(=O)CCC(=O)Nc2cccnc2)cc1	0.0501 µM [falling, full curve, poor fit]	
CCN(CC)CCCC(C)NC(=O)c1ccc(C(F)(F)F)cc1 (stereo not drawn)	10 µM [falling, partial curve, poor fit]	
Cc1nc(C)c2c(=O)cc(-c3ccccc3)[nH]c2n1	2.51 µM [rising, partial curve, poor fit]	
S=C(Nc1ccccc1)c1nc2ccccc2s1	0.891 µM [rising, partial curve, poor fit]	
CNCCOc1ccc(Cl)c(Cl)c1	10 µM [falling, partial curve, poor fit]	8.91 µM [falling, partial curve, poor fit]
Clc1ccc2nsnc2c1NC1=NCCN1	25.1 µM [falling, single point]	31.6 µM [falling, partial curve]
Cc1ccc(OCC(=O)c2c[nH]c3ccccc23)c([N+](=O)[O-])n1	0.794 µM [rising, single point]	
COc1cc(-c2nnc(SCC(=O)N(Cc3ccccc3)C(C)(C)C)o2)cc(OC)c1OC	10 µM [rising, partial curve]	
CC1CCC(NC(=O)C(NC(=O)c2ccccc2)C(C)C)CC1 (stereo not drawn)	0.0224 µM [falling, full curve, poor fit]	
O=C(C[n+]1cc(-c2ccccc2)n2c1CCC2)OCc1ccccc1	0.316 µM [falling, full curve, poor fit]	0.316 µM [falling, full curve, poor fit]
COc1ccc(NS(=O)(=O)c2ccc3nc(COc4ccc(C#N)cc4)[nH]c3c2)cc1	22.4 µM [rising, single point]	14.1 µM [rising, single point]
CCCCNC(=O)c1onc(CSc2cccc(OCC)c2)c1C(=O)O	4.47 µM [falling, single point]	
CN1CCCCc2c1nc1c(c2N)CCCC1		4.47 µM [rising, partial curve, poor fit]
COc1ccc(Nc2nc(C)nc3c2nnn3Cc2ccccc2)cc1OC	14.1 µM [rising, partial curve]	7.08 µM [rising, partial curve, poor fit]
Cc1cc(C)n(-c2nnc(NC34CC5CC(CC(C5)C3)C4)nn2)n1		35.5 µM [rising, single point]

Part of the list above, in CSV form:
Compound,AC50 [1],AC50 [2]
CN1CCCCc2c1nc1c(c2N)CCCC1,,"4.47 µM [rising, partial curve, poor fit]"
COc1ccc(Nc2nc(C)nc3c2nnn3Cc2ccccc2)cc1OC,"14.1 µM [rising, partial curve]","7.08 µM [rising, partial curve, poor fit]"

Continued.

Compound	AC50 [1]	AC50 [2]
CC(=O)N(C)c1ccc(NC(=O)Nc2ccccc2C)cc1		1.78 µM [falling, full curve, poor fit]
COc1ccc(C2C(C(=O)Nc3ccccc3OC)=C(C)Nc3c(C(=O)Nc4ccccc4)cnn32)c(OC)c1 (stereo not drawn)	0.0224 µM [falling, full curve, poor fit]	
O=C(Nc1ccc(Cl)cc1)/C(=C/c1cccc(O)c1)c1nc2ccccc2s1	3.55 µM [rising, partial curve]	
COC(=O)c1c(Oc2nc(OC)cc(OC)n2)cccc1Oc1nc(OC)cc(OC)n1		20 µM [rising, partial curve, poor fit]
COc1cn(CC(=O)Nc2ccccc2)c(CN2CCCCC2)cc1=O	0.01 µM [rising, full curve, poor fit]	0.0224 µM [rising, full curve]
Cc1ccc(NS(=O)(=O)c2ccc(OCC(=O)NCc3ccncc3)cc2)cc1	15.8 µM [rising, partial curve, poor fit]	
COc1ccc(/C=N/Nc2nc3ccccc3s2)cc1O		22.4 µM [falling, single point]
Cc1nc2sc(-c3ccccc3)cc2c(=O)n1-n1cccc1	35.5 µM [rising, single point]	35.5 µM [rising, single point]
COc1ccc(CCNC(=O)Cn2c(=O)c3cccn3c3ccc(F)cc32)c(OC)c1	0.00398 µM [falling, full curve, poor fit]	
O=C1/C(=C/c2cccc3ccccc23)CCCc2ccccc21	35.5 µM [rising, single point]	
Cc1ccc(C)c(-c2nnc(NC(=O)c3ccc4c(c3)OCCO4)o2)c1	2.51 µM [rising, partial curve, poor fit]	
CC(=O)Nc1ccc(S(=O)(=O)Nc2cccn(Cc3ccc(C)cc3)c2=O)cc1	12.6 µM [falling, partial curve]	
COc1cccc(C(=O)Nc2ccc(-n3nncc3-c3ccccc3)cc2)c1	35.5 µM [falling, partial curve]	35.5 µM [falling, partial curve, poor fit]
Cc1oc2ncn(CC(C)C)c(=O)c2c1C(=O)NCCCN1CCC(C)CC1	0.0141 µM [falling, full curve]	
Cc1cc(=S)cc(C)n1CCO	15.8 µM [rising, single point]	14.1 µM [rising, single point]
CS(=O)(=O)N(CC(=O)Nc1ccc(S(=O)(=O)N2CCCC2)cc1)c1ccccc1	0.501 µM [falling, partial curve]	0.316 µM [falling, full curve, poor fit]
Cc1ccc(NC(=S)NNC(=O)c2nnn(-c3ccccc3)c2C)cc1	7.94 µM [rising, partial curve, poor fit]	10 µM [rising, partial curve]
COc1ccc(-c2cc(C(=O)Nc3sc4c(c3C#N)CCCC4)c3ccccc3n2)cc1	12.6 µM [rising, partial curve]	
